Where a name gives a salt, the structure may show the parent alone. ± gives the standard deviation of the averaged measurements. The list shows a part of the results. The data scatter; read single values as rough.
How the values were obtained:
[1] = system: hAMSC donor 1; experiment: Hoechst total cell count ratio vs vehicle control; higher = more cells (less toxicity)
[2] = system: hAMSC donor 2; experiment: as above
[3] = system: hAMSC donor 1; experiment: transgenic luciferase activity (RLU/mg protein) fold change vs vehicle control (ratio); higher = more transgene expression
[4] = system: hAMSC donor 2; experiment: as above
[5] = system: hAMSC donor 1; experiment: transfection efficiency (EGFP+ cells / Hoechst count) fold change vs vehicle control (ratio); hAMSC are human adipose-derived mesenchymal stem cells given an EGFP-luciferase plasmid by lipofection; higher = enhanced transfection
[6] = system: hAMSC donor 2; experiment: as above
[7] = priming compound concentration 0.2 µM
[8] = priming compound concentration 1.7 µM
[9] = priming compound concentration 13 µM

Structure (SMILES)	Hoechst total cell count ratio [1, 7]	Hoechst total cell count ratio [1, 8]	Hoechst total cell count ratio [1, 9]	Hoechst total cell count ratio [2, 7]	Hoechst total cell count ratio [2, 8]	Hoechst total cell count ratio [2, 9]	transgenic luciferase activity [3, 7]	transgenic luciferase activity [3, 8]	transgenic luciferase activity [4, 7]	transgenic luciferase activity [4, 8]	transgenic luciferase activity [4, 9]	transfection efficiency [5, 7]	transfection efficiency [5, 8]	transfection efficiency [5, 9]	transfection efficiency [6, 7]	transfection efficiency [6, 8]	transfection efficiency [6, 9]	transgenic luciferase activity [3, 9]
Cc1ncc([N+](=O)[O-])n1CC(C)O (centres undefined) [Secnidazole]	1.08 ± 0.071	1.22 ± 0.11	1.41 ± 0.058	0.964 ± 0.2	1.09 ± 0.3	1.08 ± 0.15	0.664 ± 0.12	0.984 ± 0.14	0.952 ± 0.69	1.07 ± 0.18	0.68 ± 0.24	1.43 ± 0.28	1.22 ± 0.16	0.836 ± 0.1	1.12 ± 0.27	1.28 ± 0.28	1.07 ± 0.12	
CN(C)C(=O)C(CCN1CCC(O)(c2ccc(Cl)cc2)CC1)(c1ccccc1)c1ccccc1 [Loperamide hydrochloride]	1.35 ± 0.33	1.15 ± 0.12	1.54 ± 0.13	1.1 ± 0.1	1.22 ± 0.011	1.49 ± 0.1		1.04 ± 0.37	0.971 ± 0.13	0.728 ± 0.21	0.443 ± 0.013	1.13 ± 0.28	1.15 ± 0.29	0.496 ± 0.23	0.911 ± 0.15	0.979 ± 0.039	0.746 ± 0.021	0.287 ± 0.043
COc1ccccc1OCC(O)COC(N)=O (centres undefined) [Methocarbamol]	1.35 ± 0.38	1.08 ± 0.035	1.48 ± 0.22	1.12 ± 0.053	1.15 ± 0.022	1.44 ± 0.14		0.845 ± 0.1	1.01 ± 0.15	0.521 ± 0.12	0.519 ± 0.051	1.03 ± 0.29	1.34 ± 0.3	0.903 ± 0.15	0.755 ± 0.084	1.06 ± 0.12	0.824 ± 0.033	0.357 ± 0.061
COc1ccc(Cl)cc1C(=O)NCCc1ccc(S(=O)(=O)NC(=O)NC2CCCCC2)cc1 [Glyburide]	1.13 ± 0.2	1.15 ± 0.08	1.38 ± 0.14	1.1 ± 0.057	1.42 ± 0.053	1.12 ± 0.28	0.452 ± 0.13	1.83 ± 0.73	0.871 ± 0.51	0.718 ± 0.087	0.861 ± 0.032	1.08 ± 0.18	1.17 ± 0.19	1.12 ± 0.14	1.1 ± 0.2	0.901 ± 0.035	1.12 ± 0.4	
O=C1c2c(O)cc(O)cc2O[C@H](c2ccc(O)c(O)c2)[C@H]1O [Taxifolin-(+)]	1.45 ± 0.22	1.26 ± 0.1	1.17 ± 0.25	1.07 ± 0.023	1.24 ± 0.11	0.805 ± 0.11	0.546 ± 0.21	1.66 ± 0.57	0.568 ± 0.16	0.637 ± 0.1	0.553 ± 0.25	0.929 ± 0.053	1.02 ± 0.056	1.15 ± 0.4	1.11 ± 0.091	0.959 ± 0.068	0.921 ± 0.11	
COc1cc(-c2ccc(=O)[nH]n2)ccc1OC(F)F [Zardaverine]	1.12 ± 0.028	1.24 ± 0.1	1.13 ± 0.11	1.09 ± 0.14	1.52 ± 0.15	1.41 ± 0.27	0.698 ± 0.28	1.19 ± 0.36	0.822 ± 0.067	0.695 ± 0.23	0.588 ± 0.11	1.43 ± 0.28	1.88 ± 0.22	0.754 ± 0.16	1.05 ± 0.2	0.933 ± 0.14	0.987 ± 0.28	
C[C@@H]1C/C=C/C=C/C=C/C=C/[C@H](O[C@@H]2O[C@H](C)[C@@H](O)[C@H](N)[C@@H]2O)C[C@@H]2O[C@](O)(C[C@@H](O)C[C@H]3O[C@@H]3/C=C/C(=O)O1)C[C@H](O)[C@H]2C(=O)O [Natamycin]	1.15 ± 0.036	1.23 ± 0.074	1.37 ± 0.038	1.05 ± 0.11	1.3 ± 0.099	1.92 ± 0.18		0.234 ± 0.062	0.504 ± 0.13	0.457 ± 0.012	0.214 ± 0.061	1.14 ± 0.36	1.23 ± 0.58	0.757 ± 0.14	1.03 ± 0.11	0.828 ± 0.052	0.37 ± 0.023	0.71 ± 0.27
CC1(C)S[C@@H]2[C@H](NC(=O)Cc3ccccc3)C(=O)N2[C@H]1C(=O)O [Penicillin G potassium]	1.49 ± 0.14	1.14 ± 0.16	1.49 ± 0.21	1.15 ± 0.018	1.18 ± 0.11	1.12 ± 0.18		0.626 ± 0.032	0.978 ± 0.21	0.571 ± 0.1	0.505 ± 0.062	0.777 ± 0.18	1.21 ± 0.38	1.29 ± 0.18	0.985 ± 0.076	1.22 ± 0.18	0.925 ± 0.17	0.604 ± 0.33
CC(C)(C)NC[C@H](O)COc1nsnc1N1CCOCC1 [S(-)-Timolol maleate]	1.27 ± 0.25	1.2 ± 0.17	1.42 ± 0.023	1.02 ± 0.14	1.05 ± 0.075	1.07 ± 0.22		0.632 ± 0.24	0.649 ± 0.16	0.781 ± 0.085	0.861 ± 0.12	1.22 ± 0.5	1.48 ± 0.42	1.31 ± 0.12	1.07 ± 0.14	1.25 ± 0.092	1.27 ± 0.27	0.438 ± 0.11
O=c1[nH]c(=O)n([C@H]2C[C@H](O)[C@@H](CO)O2)cc1F [Floxuridine]	1.14 ± 0.11	1.27 ± 0.013	1.341 ± 0.0091	1.35 ± 0.083	1.14 ± 0.029	1.4 ± 0.22		0.252 ± 0.029	0.938 ± 0.47	0.74 ± 0.28	0.551 ± 0.17	0.951 ± 0.2	1.04 ± 0.17	0.9 ± 0.21	0.964 ± 0.042	1.14 ± 0.1	0.808 ± 0.11	0.791 ± 0.18
O=C1C(CC[S+]([O-])c2ccccc2)C(=O)N(c2ccccc2)N1c1ccccc1 (centres undefined) [Sulfinpyrazone]	1.1 ± 0.013	1.24 ± 0.11	1.4 ± 0.057	1.05 ± 0.21	1.07 ± 0.093	1.22 ± 0.26	0.749 ± 0.24	1.44 ± 0.56	0.817 ± 0.091	1.15 ± 0.14	0.604 ± 0.058	1.2 ± 0.2	1.67 ± 0.17	0.855 ± 0.17	1.03 ± 0.17	1.14 ± 0.21	0.977 ± 0.13	
COC(=O)C1=C(C)NC(C)=C(C(=O)OC(C)C)C1c1cccc2nonc12 (centres undefined) [Isradipine]	1.22 ± 0.23	1.13 ± 0.27	1.38 ± 0.11	0.874 ± 0.2	0.971 ± 0.046	0.968 ± 0.013		0.592 ± 0.47	0.509 ± 0.068	1.06 ± 0.11	0.923 ± 0.79	1.18 ± 0.26	1.67 ± 0.54	1.16 ± 0.23	1.17 ± 0.42	1.54 ± 0.11	1.28 ± 0.2	0.318 ± 0.15

Source: the supplement of paper PMC7238544
